We go through 7 sequences from patent publication US5686574.

For part of these data: Where cells or extracts were used, other partners may take part. For part of these data: Where a protein sequence is shown, tags need not be part of it. For part of these data: Construct, isoform or probe ends are uncertain for at least one entry. For part of these data: Negatives hold for the conditions tested.

For one data set, the target named is T1, TR beta (UniProt P10828).
T1 sequence (looked up, limits assumed): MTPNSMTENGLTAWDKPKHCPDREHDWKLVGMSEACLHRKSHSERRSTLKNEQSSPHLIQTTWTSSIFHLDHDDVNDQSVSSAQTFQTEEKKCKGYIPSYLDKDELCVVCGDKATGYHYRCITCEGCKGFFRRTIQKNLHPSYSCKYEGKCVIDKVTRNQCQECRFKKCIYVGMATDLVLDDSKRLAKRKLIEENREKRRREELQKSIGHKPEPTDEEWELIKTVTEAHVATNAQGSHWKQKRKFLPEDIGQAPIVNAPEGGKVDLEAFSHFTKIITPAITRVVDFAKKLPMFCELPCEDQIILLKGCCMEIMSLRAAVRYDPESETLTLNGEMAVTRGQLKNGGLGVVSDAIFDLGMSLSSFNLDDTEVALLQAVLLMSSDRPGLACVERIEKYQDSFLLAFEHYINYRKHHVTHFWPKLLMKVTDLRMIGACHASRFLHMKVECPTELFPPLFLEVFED
As to the kind of experiment: activity in cells. Particulars: T3-dependent transactivation; JEG3 cells; protein in cells; only the site is given.

The subject of data set [1] is TR/GR chimera (TR A/B and C domains fused to GR D, E, F domains). Description: activity in cells. Particulars: ligand-dependent, relatively low activation; JEG3 cells; protein in cells; only the site is given.
Data set [2] deals with T2, CAR (intact, transfected) (Homo sapiens) (UniProt Q14994).
T2 sequence (limits assumed): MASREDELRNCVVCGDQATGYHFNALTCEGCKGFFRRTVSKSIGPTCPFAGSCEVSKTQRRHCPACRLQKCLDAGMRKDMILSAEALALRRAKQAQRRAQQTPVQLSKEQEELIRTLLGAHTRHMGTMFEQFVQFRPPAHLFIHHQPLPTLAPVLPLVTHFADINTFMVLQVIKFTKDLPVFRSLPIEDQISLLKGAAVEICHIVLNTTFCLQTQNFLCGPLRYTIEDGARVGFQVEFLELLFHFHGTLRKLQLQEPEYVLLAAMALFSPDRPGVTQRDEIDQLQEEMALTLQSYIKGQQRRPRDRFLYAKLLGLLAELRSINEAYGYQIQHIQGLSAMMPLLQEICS
Description: activity in cells. Particulars: protein in cells, only the site is given.

In another data set the target is T3, RAR alpha (UniProt P10276).
T3 sequence (looked up, limits assumed): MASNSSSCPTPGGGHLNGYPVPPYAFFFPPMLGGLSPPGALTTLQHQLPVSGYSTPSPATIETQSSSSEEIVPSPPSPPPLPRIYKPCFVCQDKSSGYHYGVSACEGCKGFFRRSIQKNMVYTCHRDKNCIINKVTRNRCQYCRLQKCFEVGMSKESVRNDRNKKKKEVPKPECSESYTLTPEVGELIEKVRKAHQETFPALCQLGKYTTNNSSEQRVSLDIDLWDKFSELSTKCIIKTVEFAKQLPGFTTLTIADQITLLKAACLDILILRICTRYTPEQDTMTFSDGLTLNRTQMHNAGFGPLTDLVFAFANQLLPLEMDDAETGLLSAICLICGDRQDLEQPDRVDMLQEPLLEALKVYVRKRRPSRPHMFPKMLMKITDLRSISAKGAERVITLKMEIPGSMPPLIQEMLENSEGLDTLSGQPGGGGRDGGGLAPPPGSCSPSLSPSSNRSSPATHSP
Description: EMSA. Particulars: higher apparent affinity than CAR; protein in an extract. A general note: Mobility shift assays separate free from complexed probe on a gel.

The subject of the next data set is CAR + RXR alpha. As to the kind of experiment: EMSA. Particulars: CAR binding strongly stimulated by RXR alpha extract; protein in an extract.
Data set [3] addresses T4, CAR (constitutive activator of retinoid response, NR1I3) (Homo sapiens) (UniProt Q14994).
T4 sequence (limits assumed): T2 sequence (limits assumed)
Description: EMSA. Particulars: specific binding, lower apparent affinity than RAR alpha; no effect of mixing with RAR; protein in an extract.

Another data set has as its system T5, RAR beta.
T5 sequence (looked up, limits assumed): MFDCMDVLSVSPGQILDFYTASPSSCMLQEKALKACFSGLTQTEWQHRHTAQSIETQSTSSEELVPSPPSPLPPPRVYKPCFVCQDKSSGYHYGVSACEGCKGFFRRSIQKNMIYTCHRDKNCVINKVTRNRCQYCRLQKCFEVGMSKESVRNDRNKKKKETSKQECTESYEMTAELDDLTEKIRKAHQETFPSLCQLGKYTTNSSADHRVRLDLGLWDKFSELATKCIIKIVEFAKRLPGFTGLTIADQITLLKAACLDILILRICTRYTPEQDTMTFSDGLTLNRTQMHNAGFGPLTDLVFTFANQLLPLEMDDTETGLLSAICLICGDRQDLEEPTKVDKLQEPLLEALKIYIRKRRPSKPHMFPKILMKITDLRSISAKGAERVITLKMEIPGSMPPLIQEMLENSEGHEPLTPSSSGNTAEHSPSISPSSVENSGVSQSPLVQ
As to the kind of experiment: activity in cells. To be noted: RA-induced activation; without RA excess RAR beta blocks CAR activation; protein in cells; only the site is given.

On to “AAAGGTAAGATCAGGGACGTGACCGCAG (double strand) [T3RE]”, for which the “activity on this sequence” value (with TR beta; in data set [1]) was “active” each time.
As to “AAAGGTAAGATCAGGGACGTGACCTCAG (double strand) [rat growth hormone T3RE/RARE up mutant]”, the “activity on this sequence” value in data set [2] (not transactivated, tandem copies, second inverted) was “not active”.
On to “AGACAGGTTGACCCTTTTTCTAAGGGCTTAACCTAGCTCACCTG (double strand) [laminin T3RE/RARE]”, for which the “activity on this sequence” value in data set [2] (not transactivated) is “not active”.
As to “AGGACGTTGGGGTTAGGGGAGGACAGTG (double strand) [rat malic enzyme T3RE]”, the “activity on this sequence” value in data set [2] (no response) is “not active”.
On to “CTGGAGGTGACAGGAGGACAGCAGCCCTGA (double strand) [rat alpha-myosin heavy chain T3RE]”, for which the “activity on this sequence” value in data set [2] (no response) is given as “not active”.
As for “GGGTAGGGTTCACCGAAAGTTCACTCG (double strand) [beta-RARE (RAR beta gene)]”, the binding result (with RAR alpha; with CAR + RXR alpha; in data set [3]) was “binds” throughout. The “activity on this sequence” value with RAR beta was “active”; in data set [2] (constitutive transactivation without RA, JEG3 cotransfection (standard), stimulated by RXR alpha), “active”.
Consider “TGGGTGAATGAGGACATTACTGACCGCTCCG (double strand) [rat osteocalcin VDRE/RARE]”, for which, in data set [2] (no response in cotransfection), the “activity on this sequence” value is reported as “not active”.
